No constants are given. Whether binding was seen depends on the method and setting. Binding seen in cells or lysates may run through a third protein. A result given as binding can be weak or reduced; the word gives no strength.
Molecular target: mEGFP-Cdc42 (UniProt P60953)
Assay: FRET or BRET; 2pFLIM of two-component FRET sensors (mEGFP-GTPase donor; effector binding domain between two red fluorescent proteins as acceptor) in CA1 pyramidal neurons of mouse organotypic hippocampal slices; binding fraction in single spines before and after glutamate uncaging (30 pulses at 0.5 Hz); slices from WT and PKCα KO littermates, also KO with PKCα or PKCα-no PDZ; room temperature

The chains behind the UniProt entries cited, without tags or fusion partners. Where a name states a change or a piece, a line headed by the entry shows the natural chain unless it says otherwise.
UniProt P60953: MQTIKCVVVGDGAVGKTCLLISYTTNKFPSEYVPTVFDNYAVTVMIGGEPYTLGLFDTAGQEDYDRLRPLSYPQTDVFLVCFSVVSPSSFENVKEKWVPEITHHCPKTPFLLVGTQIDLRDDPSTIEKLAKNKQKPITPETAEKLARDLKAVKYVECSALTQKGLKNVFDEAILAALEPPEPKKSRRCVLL
UniProt O75914: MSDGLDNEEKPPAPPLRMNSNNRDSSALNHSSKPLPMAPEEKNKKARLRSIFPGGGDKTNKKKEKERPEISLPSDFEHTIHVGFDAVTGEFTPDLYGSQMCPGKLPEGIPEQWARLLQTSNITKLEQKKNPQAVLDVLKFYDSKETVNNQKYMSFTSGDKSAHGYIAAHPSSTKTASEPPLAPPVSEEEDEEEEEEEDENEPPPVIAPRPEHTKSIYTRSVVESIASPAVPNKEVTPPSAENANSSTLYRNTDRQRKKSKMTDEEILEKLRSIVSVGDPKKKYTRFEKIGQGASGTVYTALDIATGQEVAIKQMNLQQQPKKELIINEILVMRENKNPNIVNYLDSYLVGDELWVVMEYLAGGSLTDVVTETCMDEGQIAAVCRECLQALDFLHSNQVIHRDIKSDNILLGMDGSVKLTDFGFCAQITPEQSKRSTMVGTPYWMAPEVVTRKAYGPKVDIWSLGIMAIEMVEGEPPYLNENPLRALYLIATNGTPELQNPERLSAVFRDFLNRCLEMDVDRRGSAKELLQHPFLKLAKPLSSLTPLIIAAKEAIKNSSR

mCherry-Pak3(60-113)/S74A/F84A-mCherry-C1 (from UniProt O75914) (domain or fragment)
binding: binds

Reference: publication PMC7000694
